{"source": "PubChem BioAssay AID1259424 (University of Nebraska Medical Center, 2018)", "assay": "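Rank knockdowns across the genome by resemblance to the KSR1 depletion profile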 (primary screen)", "cell system": "human HCT116 colon cancer cells", "reagent": "siRNA pool against human genes, 50 nM", "measured": "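Log2 levels of six mRNAs (branched-DNA multiplex), adjusted by two reference genes and the non-targeting median, then scored against the average KSR1 knockdown pattern as Pearson r and euclidean distance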", "direction": "mean correlation with KSR1 profile: higher = expression change more like KSR1 knockdown; mean distance from KSR1 profile: higher = expression change less like KSR1 knockdown", "note": "The deposit covers about 14,000 reagents; shown is a part drawn at random. 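Higher correlation or smaller distance means closer resemblance to KSR1 loss; control wells, including KSR1 knockdowns, recur on many plates.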 Further read-outs or replicates are left out here. Not stated in the record: the time to read-out."}
{"Gene": "KRT17", "mean correlation with KSR1 profile": 0.0837, "mean distance from KSR1 profile": 3.58}
{"Gene": "KCNN1", "mean correlation with KSR1 profile": -0.363, "mean distance from KSR1 profile": 3.03}
{"Gene": "TRIM46", "mean correlation with KSR1 profile": 0.277, "mean distance from KSR1 profile": 1.54}
{"Gene": "KCTD15", "mean correlation with KSR1 profile": 0.528, "mean distance from KSR1 profile": 2.2}
{"Gene": "POGK", "mean correlation with KSR1 profile": -0.935, "mean distance from KSR1 profile": 3.95}

2 entries from above, arranged by “mean distance from KSR1 profile”, descending.
{"Gene": "KRT17", "mean correlation with KSR1 profile": 0.0837, "mean distance from KSR1 profile": 3.58}
{"Gene": "KCNN1", "mean correlation with KSR1 profile": -0.363, "mean distance from KSR1 profile": 3.03}

The results go on.
{"Gene": "GANC", "mean correlation with KSR1 profile": 0.346, "mean distance from KSR1 profile": 1.97}
{"Gene": "PCDHAC1", "mean correlation with KSR1 profile": 0.27, "mean distance from KSR1 profile": 1.73}
{"Gene": "P2RX7", "mean correlation with KSR1 profile": -0.526, "mean distance from KSR1 profile": 2.23}
{"Gene": "CRYBB2", "mean correlation with KSR1 profile": -0.23, "mean distance from KSR1 profile": 2.38}
{"Gene": "HNRNPD", "mean correlation with KSR1 profile": 0.782, "mean distance from KSR1 profile": 2.59}
{"Gene": "PCDH18", "mean correlation with KSR1 profile": 0.271, "mean distance from KSR1 profile": 2.17}
{"Gene": "PCGF1", "mean correlation with KSR1 profile": 0.446, "mean distance from KSR1 profile": 1.35}
